Experimental data reported in PubChem BioAssay AID504327 (National Center for Advancing Translational Sciences (NCATS), 2011).
Among all 390,000 compounds or so, about 820 (0.21%) were called active. Inconclusive results, whose numbers are uncertain, are shown with a selection of clear calls. The call rests on the fitted dose curve; in most records, active means well fitted inhibition curve with a large enough effect; inconclusive means small, poorly fitted or top-dose-only effect, or another doubt; inactive means no such curve, though single readings can be large or run the other way. Where the call is inconclusive, the potency comes from a doubtful curve fit.

The chains behind the UniProt entries cited, without tags or fusion partners.
UniProt Q92830, whole entry, looked up: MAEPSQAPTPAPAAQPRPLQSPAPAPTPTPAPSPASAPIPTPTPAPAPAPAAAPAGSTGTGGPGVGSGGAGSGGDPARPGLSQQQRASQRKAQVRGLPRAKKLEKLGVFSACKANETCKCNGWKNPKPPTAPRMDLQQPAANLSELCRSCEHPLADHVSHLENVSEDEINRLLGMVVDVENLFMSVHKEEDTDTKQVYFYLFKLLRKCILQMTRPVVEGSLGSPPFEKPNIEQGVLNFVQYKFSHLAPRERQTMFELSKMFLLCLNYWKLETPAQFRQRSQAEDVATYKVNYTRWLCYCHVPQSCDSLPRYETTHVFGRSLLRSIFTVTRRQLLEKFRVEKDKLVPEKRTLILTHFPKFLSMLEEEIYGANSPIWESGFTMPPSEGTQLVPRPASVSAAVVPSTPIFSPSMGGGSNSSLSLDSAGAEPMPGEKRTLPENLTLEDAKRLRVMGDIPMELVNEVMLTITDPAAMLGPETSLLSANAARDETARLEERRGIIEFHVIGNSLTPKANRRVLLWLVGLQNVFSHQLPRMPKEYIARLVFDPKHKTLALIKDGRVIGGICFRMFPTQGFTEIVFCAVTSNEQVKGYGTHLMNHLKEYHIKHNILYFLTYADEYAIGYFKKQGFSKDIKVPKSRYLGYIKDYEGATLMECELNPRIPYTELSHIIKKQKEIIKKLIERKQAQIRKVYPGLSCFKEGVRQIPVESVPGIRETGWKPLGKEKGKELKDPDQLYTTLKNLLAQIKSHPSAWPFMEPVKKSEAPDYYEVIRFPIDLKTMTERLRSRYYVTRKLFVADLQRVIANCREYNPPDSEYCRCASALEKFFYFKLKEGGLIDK

Molecular target: Histone acetyltransferase KAT2A (Homo sapiens) (UniProt Q92830)
Assay: qHTS Assay for Inhibitors of GCN5L2
Settings: GCN5L2 HAT assay, ThioGlo1 CoA-SH fluorescence; activity change, negative = inhibition: at 58.9 µM (top of the series) unless noted
In short: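 ThioGlo1-coupled HAT assay: 20nM GCN5L2, 70uM acetyl-CoA, 75uM H3(1-25) peptide, pH 7.5. Fluorescence read at 340/540nm at start and after 20 min at room temperature.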
On the % scale 0 is the no-effect control and ±100 the full control effect; potency means the concentration at half of the fitted maximal effect.

SMILES	Potency	activity change, negative = inhibition
Cc1ccc(C)c(CN2CCC(CNC(=O)Nc3ccc(Br)cc3F)CC2)c1	inconclusive: 3.55 µM [inhibitor, single point]	
CCOc1ccc(NC(=O)Cn2cc(C(=O)c3ccc(CC)cc3)c(=O)c3cc(OC)c(OC)cc32)cc1		inactive: -2.46%
Cc1cc(C(=O)Nc2ccc(Br)cc2F)n(-c2ccccc2)n1		inactive: 1.59%
CCn1cnc2cc(NCc3ccc(Br)cc3)ccc21		inactive: 1.5%
C=CCn1c(-c2ccccc2)n[nH]c1=S		inactive: -3.22%
Cc1cc(-c2nnc(CCC(=O)NC(c3ccccc3)c3ccccc3)o2)no1	inconclusive: 3.16 µM [inhibitor, single point]	
O=C(Nc1ccc(-n2nncc2-c2ccco2)cc1)c1cccc(F)c1	inconclusive: 39.8 µM [inhibitor, single point]	
Cc1ccsc1/C=N/n1c(-c2cccnc2)n[nH]c1=S	inconclusive: 0.562 µM [inhibitor, partial curve, poor fit]	
CCOc1ccccc1-c1cc(C(=O)N2CCOCC2)c2ccccc2n1	inconclusive: 0.178 µM [inhibitor, full curve, poor fit]	
Cc1nn(-c2ccccc2)c(OC(=O)c2cccs2)c1S(=O)(=O)c1ccccc1	inconclusive: 0.891 µM [inhibitor, single point]	
O=C(COc1c(Br)cc(Br)c2cccnc12)Nc1ccccc1F		inactive: -2.69%
CSc1ccc(/C=C/C(=O)c2ccc(NC(C)=O)cc2)cc1	inconclusive: 39.8 µM [inhibitor, single point]	
CCOc1ccccc1-c1noc(CSc2nnc(-c3ccccc3)n2-c2ccc(F)cc2)n1		inactive: -7.55%
COC(=O)c1cc2sccc2n1Cc1nc(-c2ccc(OC)cc2)oc1C	inconclusive: 0.794 µM [inhibitor, single point]	
Cc1cc(C(=O)CSc2nncs2)c(C)n1Cc1ccco1		inactive: -3.46%
COc1ccc(SCCC(=O)NCc2ccncc2)cc1	inconclusive: 39.8 µM [inhibitor, single point]	
Cc1cccc(S(=O)(=O)CC(=O)Nc2nc(-c3ccccc3)cs2)c1		inconclusive: -37.9% [inhibitor]
O=C(CSc1nc2nc(-c3cccs3)cc(C(F)(F)F)c2c(=O)[nH]1)C(F)(F)F	inconclusive: 39.8 µM [inhibitor, single point]	
Cc1[nH][nH]c(=O)c1C(c1ccc(-c2ccc(C(=O)O)cc2)o1)c1c(C)[nH][nH]c1=O	inconclusive: 25.1 µM [inhibitor, single point]	
COc1ccc(/C=N/Nc2nn3cnnc3c3ccccc23)cc1		inactive: -12.1%
CCOC(=O)c1sc(N)nc1C(C)(C)C	inconclusive: 0.631 µM [inhibitor, partial curve, poor fit]	
Cc1ccc(CNC(=O)Cc2cn(C)c3ccccc23)cc1	inconclusive: 0.562 µM [inhibitor, single point]	
Cc1nn(C(=O)c2ccc(Cl)cc2)c(C)c1S(=O)(=O)N1CCCCCC1		inactive: 0.67%
CCC(=O)N1c2ccccc2CC1C(=O)NCCc1ccccc1 (centres undefined)		inactive: 2.37%
COc1ccc(/C=N/NC(=O)c2ccncc2)cc1CSc1nc2ccccc2s1	inconclusive: 11.2 µM [inhibitor, partial curve, poor fit]	

SMILES	Potency	activity change, negative = inhibition
O=C(Nc1ccc(NC(=O)c2sc3ccccc3c2Cl)cc1Cl)c1ccco1	inconclusive: 0.794 µM [inhibitor, full curve, poor fit]	
COc1cc(/C=C/c2nc(C#N)c(N3CCCCC3)o2)cc(OC)c1OC	inconclusive: 15.8 µM [inhibitor, partial curve]	
COc1ccc2[nH]c3c(N4CCc5ccccc5C4)ncnc3c2c1		inactive: -26.2%
O=[N+]([O-])c1ccccc1S(=O)(=O)Nc1ccc(-c2ccc(N3CCCC3)nn2)cc1	inconclusive: 39.8 µM [inhibitor, single point]	
C/C(=N\NC(=O)c1ccccc1C)c1ccc(N2CCOCC2)cc1	inconclusive: 0.141 µM [inhibitor, full curve, poor fit]	
Cc1cc(NC(=O)c2cc(-c3cccc(Cl)c3)on2)nn1Cc1ccc(Cl)cc1		inactive: -7.09%
O=C(O)C1Nc2c(O)cc(Cl)c([N+](=O)[O-])c2C2C=CCC12 (centres undefined)	active: 3.16 µM	
Cc1ccc(C)c(Cn2c3ccccc3c3cnn(CC(=O)NC4CCC(C)CC4)c(=O)c32)c1 (centres undefined)		inactive: -6.59%
COc1ccc(/C=C/C(=O)c2nc3ccccc3n2CC(=O)c2ccc(OC)cc2)cc1		inactive: -15.3%
CNc1ccccc1C(=O)N1CCc2c([nH]c3ccccc23)C1=O	inconclusive: 31.6 µM [inhibitor, single point]	
CCOc1c(Cl)cc(CNc2ccc(S(N)(=O)=O)cc2)cc1OC		inactive: -13.1%
CC1(C)NC(=O)N(CCOCCOc2ccc3ccccc3c2Br)C1=O		inconclusive: -37.4% [inhibitor]
COc1ccc(Cl)cc1NC(=O)Cn1c(=O)n(Cc2cccs2)c(=O)c2cccnc21		inactive: -7.05%
Cc1nn(CC(=O)NCc2ccc(N(C)C)cc2)c(=O)c2c(C)n(-c3ccc(Cl)cc3)nc12		inactive: -1.84%
Cc1ccc(CSCC2Nc3ccc(C(=O)N4CCN(c5ccc(F)cc5)CC4)cc3NC2=O)cc1 (centres undefined)	inconclusive: 31.6 µM [inhibitor, single point]	
Nc1nonc1-n1nnc(C(=O)N/N=C/c2ccc(O)cc2)c1COc1ccc(F)cc1		inactive: -6.52%
CC(=O)Nc1cc(C(=O)OCC(=O)c2ccc(C)cc2)ccc1C		inactive: -10.7%
N#CCCn1c(=O)c(-c2ccc(F)cc2)nc2cnc(Oc3ccccc3)nc21	inconclusive: 39.8 µM [inhibitor, single point]	
O=C(N/N=C/c1cc(Cl)ccc1O)c1ccncc1		inactive: -3.97%
Nc1c(NCCN2CCOCC2)c2ccccc2oc1=O	inconclusive: 31.6 µM [inhibitor, single point]	
O=C(O)c1ccc(NC(=S)NC(=O)c2ccc3ccccc3c2)cc1	inconclusive: 3.16 µM [inhibitor, partial curve, poor fit]	
O=C(CSc1nnc(COc2ccccc2)n1Cc1ccco1)NCc1ccco1		inactive: -13.4%
CCN(CC)c1ccc2ccc(=O)oc2c1	inconclusive: 7.08 µM [inhibitor, single point]	
CC1=C(C(=O)OCc2ccccc2)C(c2ccc(-c3ccccc3)cc2)NC(=O)N1CCCCCC(=O)O (centres undefined)	inconclusive: 39.8 µM [inhibitor, single point]	
Cc1nnc(NC(=O)c2ccc(S(=O)(=O)N3CCCCC3C)cc2)o1 (centres undefined)		inactive: -2.46%

Part of the list above in order of formula weight, smallest number first.
SMILES	Potency	activity change, negative = inhibition
Cc1ccsc1/C=N/n1c(-c2cccnc2)n[nH]c1=S	inconclusive: 0.562 µM [inhibitor, partial curve, poor fit]	
CCOc1ccccc1-c1cc(C(=O)N2CCOCC2)c2ccccc2n1	inconclusive: 0.178 µM [inhibitor, full curve, poor fit]	
COc1ccc(Cl)cc1NC(=O)Cn1c(=O)n(Cc2cccs2)c(=O)c2cccnc21		inactive: -7.05%
CC1=C(C(=O)OCc2ccccc2)C(c2ccc(-c3ccccc3)cc2)NC(=O)N1CCCCCC(=O)O (centres undefined)	inconclusive: 39.8 µM [inhibitor, single point]	

Next part:

SMILES	Potency	activity change, negative = inhibition
O=C(Nc1ccccc1N1CCCC1)c1cccc(F)c1	inconclusive: 7.08 µM [inhibitor, single point]	
CCC(=O)Nc1ccccc1-c1nc2ccccc2n(CC(=O)c2ccc(Cl)cc2)c1=O	inconclusive: 31.6 µM [inhibitor, single point]	
COc1ccc2c(c1)-c1nc(NC(=O)c3ccc(OC)c(Br)c3)sc1CC2		inactive: -17.4%
COc1cc(/C=C/c2ccc3c(Br)cc(Br)c(O)c3n2)ccc1O		inactive: -4.94%
CCCCCn1nc(-c2ccccc2)c2nc3ccccc3nc21	inconclusive: 31.6 µM [inhibitor, single point]	
CCCCC1(C)OC(=O)C(=Cc2ccc(-c3ccc(Cl)c(C(=O)O)c3)o2)C(=O)O1 (centres undefined)	inconclusive: 39.8 µM [inhibitor, single point]	
CCNC(=S)Nc1ccc(OCc2nc3ccccc3s2)cc1	inconclusive: 17.8 µM [inhibitor, partial curve]	
CCN(CC)S(=O)(=O)c1ccc(C(=O)Nc2ccc(Cc3ccncc3)cc2)cc1		inactive: -0.597%
COc1cc(C(=O)CSc2nnc(-c3ccc(O)cc3)n2CC2CCCO2)ccc1NC(C)=O (centres undefined)	inconclusive: 35.5 µM [inhibitor, single point]	
CCOC(=O)C1(CCc2ccccc2)CCN(Cc2ccc(O)cc2)CC1	inconclusive: 2.82 µM [inhibitor, single point]	
O=C(NC1=NCCS1)Nc1ccccc1	inconclusive: 0.891 µM [inhibitor, single point]	
CC(=O)Nc1ccc(OCCOc2ccc(/C=C3/C(=N)N4C=CSC4=NC3=O)cc2)cc1		inactive: -3.9%
CCOC(=O)Cn1nc(/C=C/c2ccc(C(C)C)cc2)ccc1=O	inconclusive: 5.62 µM [inhibitor, single point]	
Cc1ccc(NC(=O)CN2C(=O)N/C(=C/c3ccc(C)o3)C2=O)cc1	inconclusive: 39.8 µM [inhibitor, single point]	
CCCCOc1ccc2c(c1)C(=O)c1cc(O)ccc1-2	inconclusive: 6.31 µM [inhibitor, single point]	
COc1cccc(Nc2ncc3nc(-c4ccc(Cl)cc4)c(=O)n(CCC#N)c3n2)c1	inconclusive: 28.2 µM [inhibitor, partial curve]	
Cc1cc(-c2csc(N)n2)c(C)n1Cc1ccco1	inconclusive: 8.91 µM [inhibitor, single point]	
O=[N+]([O-])c1ccc(Sc2n[nH]c(-c3ccccc3)n2)nc1		inactive: -10.5%
CCOc1ccc(CCNC(=O)COC(=O)c2sccc2C)cc1OCC	inconclusive: 20 µM [inhibitor, single point]	
O=C(CCS(=O)NCc1ccccc1)NCc1ccccc1 (centres undefined)		inactive: -5.5%
CNC(=O)c1nnsc1S(=O)(=O)c1ccc(Cl)cc1	inconclusive: 17.8 µM [inhibitor, partial curve]	
O=C1/C(=C/c2ccco2)SC(=S)N1c1cccnc1	active: 28.2 µM	
O=C(O)c1ccccc1-c1nc2ccccc2n1-c1ccccc1		inactive: -0.249%
CCOc1ccc(NC(=O)c2c(NC(=O)Cc3ccccc3)sc3c2CCC(C)C3)cc1 (centres undefined)	inconclusive: 22.4 µM [inhibitor, single point]	
